Laboratory results published in paper PMC9947421.
Like-named read-outs stand apart in the source and are kept apart here. These are yes or no findings as the source states them, for the method shown. In cells and extracts the contact can be indirect. Here binding means that the protein was enriched with, or labelled near, the bait; the list need not be complete.

By UniProt entry, the sequences of proteins in these tests, tags left out. Where a name states a change or a piece, a line headed by the entry shows the natural chain unless it says otherwise.
UniProt Q99594: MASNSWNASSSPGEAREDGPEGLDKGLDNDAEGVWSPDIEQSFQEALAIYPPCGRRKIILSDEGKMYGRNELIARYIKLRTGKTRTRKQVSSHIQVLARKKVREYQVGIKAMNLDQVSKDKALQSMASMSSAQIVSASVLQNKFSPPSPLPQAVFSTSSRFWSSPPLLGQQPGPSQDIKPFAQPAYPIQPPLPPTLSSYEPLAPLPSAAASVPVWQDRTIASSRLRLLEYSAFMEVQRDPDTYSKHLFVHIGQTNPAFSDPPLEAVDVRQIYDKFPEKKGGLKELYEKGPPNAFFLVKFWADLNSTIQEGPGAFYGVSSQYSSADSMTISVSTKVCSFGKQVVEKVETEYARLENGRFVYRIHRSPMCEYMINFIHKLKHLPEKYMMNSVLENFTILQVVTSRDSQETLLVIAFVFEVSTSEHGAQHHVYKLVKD
UniProt P78527: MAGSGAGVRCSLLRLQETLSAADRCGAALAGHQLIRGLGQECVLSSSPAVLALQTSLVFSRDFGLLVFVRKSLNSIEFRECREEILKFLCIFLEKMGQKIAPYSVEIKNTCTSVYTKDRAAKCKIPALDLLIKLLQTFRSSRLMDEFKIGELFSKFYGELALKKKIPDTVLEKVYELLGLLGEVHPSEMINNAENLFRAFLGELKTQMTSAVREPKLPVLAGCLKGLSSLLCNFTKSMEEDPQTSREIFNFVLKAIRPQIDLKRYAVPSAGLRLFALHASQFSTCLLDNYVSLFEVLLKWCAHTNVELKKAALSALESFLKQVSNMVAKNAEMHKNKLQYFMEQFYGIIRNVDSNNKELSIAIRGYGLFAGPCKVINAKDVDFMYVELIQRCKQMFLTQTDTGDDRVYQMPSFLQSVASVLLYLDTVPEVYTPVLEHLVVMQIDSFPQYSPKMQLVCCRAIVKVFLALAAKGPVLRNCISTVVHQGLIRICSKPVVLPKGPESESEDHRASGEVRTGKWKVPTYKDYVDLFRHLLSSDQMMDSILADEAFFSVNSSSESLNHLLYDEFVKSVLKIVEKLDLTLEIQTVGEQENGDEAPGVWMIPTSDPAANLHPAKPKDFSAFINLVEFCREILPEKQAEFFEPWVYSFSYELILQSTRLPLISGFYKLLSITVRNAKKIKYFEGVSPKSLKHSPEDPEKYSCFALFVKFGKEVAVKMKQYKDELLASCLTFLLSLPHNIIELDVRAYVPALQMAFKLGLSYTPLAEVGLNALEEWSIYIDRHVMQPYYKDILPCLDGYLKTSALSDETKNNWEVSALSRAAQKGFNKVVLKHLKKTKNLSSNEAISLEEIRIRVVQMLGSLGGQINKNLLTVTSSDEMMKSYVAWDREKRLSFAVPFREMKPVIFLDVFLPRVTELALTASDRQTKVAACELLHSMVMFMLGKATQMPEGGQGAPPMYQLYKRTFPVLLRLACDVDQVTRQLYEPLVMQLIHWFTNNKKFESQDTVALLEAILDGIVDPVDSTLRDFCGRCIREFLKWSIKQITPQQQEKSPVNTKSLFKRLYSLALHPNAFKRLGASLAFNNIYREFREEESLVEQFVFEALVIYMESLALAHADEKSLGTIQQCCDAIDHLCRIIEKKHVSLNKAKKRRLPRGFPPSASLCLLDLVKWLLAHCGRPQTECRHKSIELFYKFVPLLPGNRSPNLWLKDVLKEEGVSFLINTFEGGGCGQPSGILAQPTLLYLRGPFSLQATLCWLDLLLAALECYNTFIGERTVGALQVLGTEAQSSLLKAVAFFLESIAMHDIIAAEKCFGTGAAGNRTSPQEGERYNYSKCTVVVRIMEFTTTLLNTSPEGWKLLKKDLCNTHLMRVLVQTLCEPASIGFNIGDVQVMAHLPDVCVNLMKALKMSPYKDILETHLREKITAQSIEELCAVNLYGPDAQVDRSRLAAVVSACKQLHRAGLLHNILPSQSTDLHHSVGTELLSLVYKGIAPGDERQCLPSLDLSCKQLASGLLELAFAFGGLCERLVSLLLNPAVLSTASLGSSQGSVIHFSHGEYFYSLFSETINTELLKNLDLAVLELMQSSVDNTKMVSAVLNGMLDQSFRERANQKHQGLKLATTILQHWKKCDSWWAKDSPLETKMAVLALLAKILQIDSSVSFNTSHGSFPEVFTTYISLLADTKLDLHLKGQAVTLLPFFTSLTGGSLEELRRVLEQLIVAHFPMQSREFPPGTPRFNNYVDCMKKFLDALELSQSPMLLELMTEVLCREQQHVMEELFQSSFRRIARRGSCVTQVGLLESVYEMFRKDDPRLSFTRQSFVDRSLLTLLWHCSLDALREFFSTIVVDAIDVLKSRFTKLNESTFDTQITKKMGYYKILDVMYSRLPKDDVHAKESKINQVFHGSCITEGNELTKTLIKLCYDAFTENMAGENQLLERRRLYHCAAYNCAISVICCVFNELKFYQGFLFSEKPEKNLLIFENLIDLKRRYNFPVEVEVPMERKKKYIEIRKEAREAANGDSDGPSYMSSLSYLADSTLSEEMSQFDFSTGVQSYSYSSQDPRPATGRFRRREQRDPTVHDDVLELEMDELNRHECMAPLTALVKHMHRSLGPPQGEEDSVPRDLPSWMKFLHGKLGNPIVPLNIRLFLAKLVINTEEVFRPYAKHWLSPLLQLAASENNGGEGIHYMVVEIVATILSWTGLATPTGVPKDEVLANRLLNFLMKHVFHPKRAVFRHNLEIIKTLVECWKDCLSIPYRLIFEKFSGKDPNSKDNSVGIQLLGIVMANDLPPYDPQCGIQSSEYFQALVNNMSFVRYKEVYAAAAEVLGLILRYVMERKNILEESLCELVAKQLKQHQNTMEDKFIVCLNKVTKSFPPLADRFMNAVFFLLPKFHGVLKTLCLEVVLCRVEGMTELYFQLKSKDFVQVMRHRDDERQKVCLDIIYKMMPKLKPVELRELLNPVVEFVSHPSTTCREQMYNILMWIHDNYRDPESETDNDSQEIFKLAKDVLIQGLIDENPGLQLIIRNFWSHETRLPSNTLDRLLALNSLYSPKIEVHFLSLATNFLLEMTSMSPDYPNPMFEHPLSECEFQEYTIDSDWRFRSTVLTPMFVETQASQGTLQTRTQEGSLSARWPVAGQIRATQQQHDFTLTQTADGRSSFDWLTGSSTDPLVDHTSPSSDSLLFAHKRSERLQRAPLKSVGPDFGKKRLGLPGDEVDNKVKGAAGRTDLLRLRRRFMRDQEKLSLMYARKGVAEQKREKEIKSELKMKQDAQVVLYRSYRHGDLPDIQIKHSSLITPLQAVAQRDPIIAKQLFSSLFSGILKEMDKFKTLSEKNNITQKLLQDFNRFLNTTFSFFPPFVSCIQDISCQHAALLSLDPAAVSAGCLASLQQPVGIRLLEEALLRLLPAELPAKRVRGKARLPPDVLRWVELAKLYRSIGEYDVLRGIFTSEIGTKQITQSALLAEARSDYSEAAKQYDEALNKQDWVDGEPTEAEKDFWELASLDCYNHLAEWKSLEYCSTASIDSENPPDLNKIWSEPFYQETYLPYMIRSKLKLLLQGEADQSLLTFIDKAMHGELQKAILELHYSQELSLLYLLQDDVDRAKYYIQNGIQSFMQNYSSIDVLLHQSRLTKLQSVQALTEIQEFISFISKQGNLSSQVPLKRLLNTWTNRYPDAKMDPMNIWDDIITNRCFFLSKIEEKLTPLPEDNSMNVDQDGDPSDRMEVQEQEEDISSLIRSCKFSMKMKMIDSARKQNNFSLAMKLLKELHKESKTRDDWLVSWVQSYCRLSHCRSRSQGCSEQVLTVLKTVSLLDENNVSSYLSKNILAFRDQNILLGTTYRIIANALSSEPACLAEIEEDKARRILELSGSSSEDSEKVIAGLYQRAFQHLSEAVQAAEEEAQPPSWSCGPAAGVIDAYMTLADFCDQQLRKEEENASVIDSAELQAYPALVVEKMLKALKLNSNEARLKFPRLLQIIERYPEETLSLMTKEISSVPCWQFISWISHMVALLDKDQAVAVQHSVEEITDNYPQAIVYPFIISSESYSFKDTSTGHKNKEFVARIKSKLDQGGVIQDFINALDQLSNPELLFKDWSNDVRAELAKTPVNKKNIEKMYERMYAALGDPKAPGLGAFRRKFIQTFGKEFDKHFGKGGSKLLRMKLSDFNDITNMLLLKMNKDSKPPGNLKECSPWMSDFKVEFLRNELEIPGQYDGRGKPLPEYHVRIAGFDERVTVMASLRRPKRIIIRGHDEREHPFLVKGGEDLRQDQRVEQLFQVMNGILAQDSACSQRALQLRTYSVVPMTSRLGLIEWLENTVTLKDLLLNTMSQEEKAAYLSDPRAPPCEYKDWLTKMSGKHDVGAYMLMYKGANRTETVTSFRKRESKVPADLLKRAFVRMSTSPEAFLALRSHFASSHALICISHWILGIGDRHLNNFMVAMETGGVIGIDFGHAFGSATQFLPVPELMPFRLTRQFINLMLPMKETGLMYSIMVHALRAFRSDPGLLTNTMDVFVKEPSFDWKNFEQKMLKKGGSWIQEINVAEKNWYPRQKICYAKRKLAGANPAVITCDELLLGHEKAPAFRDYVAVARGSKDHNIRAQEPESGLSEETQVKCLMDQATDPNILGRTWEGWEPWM
UniProt P46937: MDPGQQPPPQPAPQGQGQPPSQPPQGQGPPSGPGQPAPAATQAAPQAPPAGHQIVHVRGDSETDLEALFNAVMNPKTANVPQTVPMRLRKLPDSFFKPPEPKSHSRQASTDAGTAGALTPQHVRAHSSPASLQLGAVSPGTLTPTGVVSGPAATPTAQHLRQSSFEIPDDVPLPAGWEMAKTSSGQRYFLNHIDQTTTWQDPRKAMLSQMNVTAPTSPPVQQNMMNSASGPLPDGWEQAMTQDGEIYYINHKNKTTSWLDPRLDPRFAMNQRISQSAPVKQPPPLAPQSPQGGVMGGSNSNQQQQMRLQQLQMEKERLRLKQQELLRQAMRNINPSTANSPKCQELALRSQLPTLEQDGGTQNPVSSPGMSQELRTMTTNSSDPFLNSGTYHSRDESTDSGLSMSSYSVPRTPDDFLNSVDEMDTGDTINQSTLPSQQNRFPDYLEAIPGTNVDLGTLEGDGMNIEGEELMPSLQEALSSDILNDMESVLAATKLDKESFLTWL
UniProt P09874: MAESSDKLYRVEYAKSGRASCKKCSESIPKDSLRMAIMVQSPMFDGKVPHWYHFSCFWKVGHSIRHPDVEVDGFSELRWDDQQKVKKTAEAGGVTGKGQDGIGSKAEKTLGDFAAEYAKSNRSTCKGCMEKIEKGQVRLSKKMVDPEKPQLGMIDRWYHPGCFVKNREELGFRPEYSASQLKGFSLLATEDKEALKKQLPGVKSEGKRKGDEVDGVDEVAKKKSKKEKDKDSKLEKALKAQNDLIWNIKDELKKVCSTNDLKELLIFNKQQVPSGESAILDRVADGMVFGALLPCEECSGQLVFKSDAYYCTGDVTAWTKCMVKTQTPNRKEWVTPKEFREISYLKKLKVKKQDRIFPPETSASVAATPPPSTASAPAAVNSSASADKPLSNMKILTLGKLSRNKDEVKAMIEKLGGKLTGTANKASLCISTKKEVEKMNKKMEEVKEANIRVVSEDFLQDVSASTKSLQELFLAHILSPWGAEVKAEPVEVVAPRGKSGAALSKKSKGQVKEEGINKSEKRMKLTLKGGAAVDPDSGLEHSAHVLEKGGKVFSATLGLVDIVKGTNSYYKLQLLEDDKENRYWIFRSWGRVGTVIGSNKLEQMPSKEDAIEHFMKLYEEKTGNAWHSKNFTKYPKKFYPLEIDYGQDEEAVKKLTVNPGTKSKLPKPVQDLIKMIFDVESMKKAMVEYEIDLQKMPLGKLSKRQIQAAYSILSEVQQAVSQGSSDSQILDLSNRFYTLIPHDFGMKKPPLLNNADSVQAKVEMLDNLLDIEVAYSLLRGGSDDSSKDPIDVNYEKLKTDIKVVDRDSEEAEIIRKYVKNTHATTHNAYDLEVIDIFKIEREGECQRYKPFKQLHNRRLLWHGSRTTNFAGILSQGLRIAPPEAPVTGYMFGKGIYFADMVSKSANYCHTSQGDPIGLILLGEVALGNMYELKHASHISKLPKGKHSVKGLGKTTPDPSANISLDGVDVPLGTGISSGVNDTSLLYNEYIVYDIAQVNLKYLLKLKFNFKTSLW
UniProt Q9GZV5: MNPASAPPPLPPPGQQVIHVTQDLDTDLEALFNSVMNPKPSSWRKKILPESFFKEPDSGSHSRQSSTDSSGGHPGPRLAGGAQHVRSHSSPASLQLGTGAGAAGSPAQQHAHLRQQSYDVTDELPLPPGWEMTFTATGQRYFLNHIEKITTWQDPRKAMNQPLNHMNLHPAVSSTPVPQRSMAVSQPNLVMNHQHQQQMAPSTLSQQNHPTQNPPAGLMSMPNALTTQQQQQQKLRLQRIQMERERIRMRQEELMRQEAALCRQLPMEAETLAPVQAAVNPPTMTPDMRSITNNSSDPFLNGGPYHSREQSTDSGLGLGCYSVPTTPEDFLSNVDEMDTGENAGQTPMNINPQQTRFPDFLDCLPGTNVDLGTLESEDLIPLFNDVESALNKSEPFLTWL

Experiments:
Assay in all cases: affinity purification with mass spectrometry; anti-Myc IP (protein A and G Dynabeads) of doxycycline-induced MYC/FLAG WT or NLS mutant TEAD3 from HEK293 and Detroit 562 whole cell lysates; 20 mM Tris-HCl pH 7.4, 150 mM NaCl, 0.5% NP-40, 2 mM MgCl2, universal nuclease; isotype IgG IP as control; GeLC-MS, SAINTexpress scoring; three biological replicates
[1] = target: WT TEAD3-Myc/Flag (human) (UniProt Q99594)
[2] = target: NLS mutant TEAD3-Myc/Flag (human) (UniProt Q99594)
[3] = target: WT TEAD3-Myc/Flag (human) (UniProt Q99594); remark: listed apart in the source
[4] = target: NLS mutant TEAD3-Myc/Flag (human) (UniProt Q99594); remark: listed apart in the source

Molecule | binding [1] | further results
DNA-dependent protein kinase, catalytic subunit (PRKDC/DNAPKcs) (from UniProt P78527 1-4128) | binds | –
Rap1-interacting factor 1 (RIF1) (from UniProt Q5UIP0 1-2472) | binds | –
X-ray repair cross-complementing protein 5 (XRCC5) (from UniProt P13010 1-732) | binds | –
X-ray repair cross-complementing protein 6 (XRCC6) (from UniProt P12956 1-609) | binds | –
Yes-associated protein (YAP) (from UniProt P46937 1-504) | – | binding [2]: binds
poly(ADP-ribose) polymerase 1 (PARP1) (from UniProt P09874 1-1014) | binds | –
transcriptional co-activator with PDZ-binding motif (TAZ) (from UniProt Q9GZV5 1-400) | binds | binding [2]: binds
VGLL4 (protein, UniProt Q14135 1-290) METPLDVLSRAASLVHADDEKREAALRGEPRIQTLPVASALSSHRTGPPPISPSKRKFSMEPGDEDLDCDNDHVSKMSRIFNPHLNKTANGDCRRDPRERSRSPIERAVAPTMSLHGSHLYTSLPSLGLEQPLALTKNSLDASRPAGLSPTLTPGERQQNRPSVITCASAGARNCNLSHCPIAHSGCAAPGPASYRRPPSAATTCDPVVEEHFRRSLGKNYKEPEPAPNSVSITGSVDDHFAKALGDTWLQIKAAKDGASSSPESASRRGQPASPSAHMVSHSHSPSVVS | – | binding [3]: binds; binding [4]: binds
